{
  "sequences": {"note": "By UniProt entry, the sequences of proteins in these tests, tags left out. Where a name states a change or a piece, a line headed by the entry shows the natural chain unless it says otherwise.", "UniProt Q5FW60": "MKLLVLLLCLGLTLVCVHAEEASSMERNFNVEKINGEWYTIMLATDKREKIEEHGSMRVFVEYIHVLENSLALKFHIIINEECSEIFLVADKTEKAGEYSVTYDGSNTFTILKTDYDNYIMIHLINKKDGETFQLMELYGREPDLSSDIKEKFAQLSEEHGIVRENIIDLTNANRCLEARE", "UniProt Q5NCF2, whole entry": "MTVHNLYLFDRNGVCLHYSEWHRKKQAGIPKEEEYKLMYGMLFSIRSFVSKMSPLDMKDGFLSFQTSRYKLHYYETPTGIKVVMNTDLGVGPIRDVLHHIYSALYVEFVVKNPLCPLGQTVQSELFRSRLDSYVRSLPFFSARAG", "UniProt Q61191": "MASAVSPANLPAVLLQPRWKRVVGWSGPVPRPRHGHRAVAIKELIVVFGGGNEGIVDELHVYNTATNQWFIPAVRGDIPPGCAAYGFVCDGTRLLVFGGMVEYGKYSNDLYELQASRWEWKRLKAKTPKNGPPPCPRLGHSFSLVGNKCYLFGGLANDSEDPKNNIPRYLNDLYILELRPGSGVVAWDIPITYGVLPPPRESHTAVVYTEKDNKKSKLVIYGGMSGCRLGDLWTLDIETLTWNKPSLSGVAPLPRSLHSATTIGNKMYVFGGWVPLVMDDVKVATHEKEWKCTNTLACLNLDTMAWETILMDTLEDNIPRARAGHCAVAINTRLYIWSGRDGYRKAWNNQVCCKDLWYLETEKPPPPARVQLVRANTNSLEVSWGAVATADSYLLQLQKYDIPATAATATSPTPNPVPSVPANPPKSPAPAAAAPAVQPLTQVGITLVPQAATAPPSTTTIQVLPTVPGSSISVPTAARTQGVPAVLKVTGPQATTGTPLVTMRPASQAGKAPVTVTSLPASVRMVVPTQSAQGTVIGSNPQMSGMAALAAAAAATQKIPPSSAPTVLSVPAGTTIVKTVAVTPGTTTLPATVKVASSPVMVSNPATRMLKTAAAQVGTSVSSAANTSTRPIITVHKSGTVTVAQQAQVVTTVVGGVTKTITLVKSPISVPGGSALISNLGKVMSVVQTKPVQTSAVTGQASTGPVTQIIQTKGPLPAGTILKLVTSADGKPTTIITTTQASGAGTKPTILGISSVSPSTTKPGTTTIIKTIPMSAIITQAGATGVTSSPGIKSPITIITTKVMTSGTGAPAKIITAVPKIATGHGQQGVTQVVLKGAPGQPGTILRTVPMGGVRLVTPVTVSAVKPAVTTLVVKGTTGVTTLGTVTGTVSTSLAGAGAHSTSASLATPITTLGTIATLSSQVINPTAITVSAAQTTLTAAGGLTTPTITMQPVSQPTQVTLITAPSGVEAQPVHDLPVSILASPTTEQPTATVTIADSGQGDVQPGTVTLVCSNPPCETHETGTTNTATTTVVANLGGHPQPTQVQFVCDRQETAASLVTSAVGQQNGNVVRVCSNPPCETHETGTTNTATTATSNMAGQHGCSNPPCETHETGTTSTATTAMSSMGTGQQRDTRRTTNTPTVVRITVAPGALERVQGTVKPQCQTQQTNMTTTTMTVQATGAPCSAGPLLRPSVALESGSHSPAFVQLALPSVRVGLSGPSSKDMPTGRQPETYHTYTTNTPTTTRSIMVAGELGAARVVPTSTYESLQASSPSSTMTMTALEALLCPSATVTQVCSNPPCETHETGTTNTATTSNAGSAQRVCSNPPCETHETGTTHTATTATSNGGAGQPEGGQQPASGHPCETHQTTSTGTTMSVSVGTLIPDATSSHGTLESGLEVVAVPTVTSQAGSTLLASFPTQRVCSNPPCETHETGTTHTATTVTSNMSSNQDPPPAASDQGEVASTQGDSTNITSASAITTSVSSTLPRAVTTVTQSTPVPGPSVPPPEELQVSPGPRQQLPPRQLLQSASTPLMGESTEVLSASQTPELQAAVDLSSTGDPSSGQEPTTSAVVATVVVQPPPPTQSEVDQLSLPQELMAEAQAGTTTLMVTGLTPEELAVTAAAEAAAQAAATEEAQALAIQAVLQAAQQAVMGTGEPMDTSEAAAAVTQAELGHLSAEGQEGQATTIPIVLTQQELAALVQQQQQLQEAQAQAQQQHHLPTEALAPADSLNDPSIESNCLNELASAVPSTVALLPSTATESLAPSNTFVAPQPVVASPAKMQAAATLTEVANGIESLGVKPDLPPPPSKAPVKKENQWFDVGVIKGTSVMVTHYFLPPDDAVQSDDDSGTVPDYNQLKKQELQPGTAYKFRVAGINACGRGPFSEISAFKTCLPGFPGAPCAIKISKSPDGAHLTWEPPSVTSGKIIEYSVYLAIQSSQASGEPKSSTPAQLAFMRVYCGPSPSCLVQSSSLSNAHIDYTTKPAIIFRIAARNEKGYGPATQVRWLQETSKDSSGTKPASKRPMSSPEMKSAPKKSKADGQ", "UniProt Q5SUA5": "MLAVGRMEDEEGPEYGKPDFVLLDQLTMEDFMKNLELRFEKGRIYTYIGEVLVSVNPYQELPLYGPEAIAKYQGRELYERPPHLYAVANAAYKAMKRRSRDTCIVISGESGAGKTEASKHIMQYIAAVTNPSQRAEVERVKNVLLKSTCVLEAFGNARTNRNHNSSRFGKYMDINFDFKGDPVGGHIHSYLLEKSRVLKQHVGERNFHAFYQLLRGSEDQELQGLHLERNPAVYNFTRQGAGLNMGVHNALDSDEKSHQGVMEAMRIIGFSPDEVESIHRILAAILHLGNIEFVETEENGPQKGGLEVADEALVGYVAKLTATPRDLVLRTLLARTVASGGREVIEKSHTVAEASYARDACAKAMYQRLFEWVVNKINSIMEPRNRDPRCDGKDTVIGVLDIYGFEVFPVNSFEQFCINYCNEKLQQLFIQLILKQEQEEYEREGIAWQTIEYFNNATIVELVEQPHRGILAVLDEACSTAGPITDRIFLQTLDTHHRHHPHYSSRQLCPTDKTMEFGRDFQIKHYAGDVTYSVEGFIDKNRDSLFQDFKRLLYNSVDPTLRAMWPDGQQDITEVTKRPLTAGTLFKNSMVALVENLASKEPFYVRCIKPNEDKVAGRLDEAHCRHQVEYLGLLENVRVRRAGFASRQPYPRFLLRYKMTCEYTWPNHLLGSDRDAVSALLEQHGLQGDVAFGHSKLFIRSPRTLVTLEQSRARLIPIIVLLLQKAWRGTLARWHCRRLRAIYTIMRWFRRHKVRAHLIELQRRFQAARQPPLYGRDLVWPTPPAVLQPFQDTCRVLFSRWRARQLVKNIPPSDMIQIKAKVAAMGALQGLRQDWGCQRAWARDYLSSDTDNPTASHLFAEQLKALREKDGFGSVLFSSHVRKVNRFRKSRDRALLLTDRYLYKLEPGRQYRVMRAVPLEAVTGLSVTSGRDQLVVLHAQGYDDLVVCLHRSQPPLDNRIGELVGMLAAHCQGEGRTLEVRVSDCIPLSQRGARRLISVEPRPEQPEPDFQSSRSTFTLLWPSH", "UniProt Q5QGU6": "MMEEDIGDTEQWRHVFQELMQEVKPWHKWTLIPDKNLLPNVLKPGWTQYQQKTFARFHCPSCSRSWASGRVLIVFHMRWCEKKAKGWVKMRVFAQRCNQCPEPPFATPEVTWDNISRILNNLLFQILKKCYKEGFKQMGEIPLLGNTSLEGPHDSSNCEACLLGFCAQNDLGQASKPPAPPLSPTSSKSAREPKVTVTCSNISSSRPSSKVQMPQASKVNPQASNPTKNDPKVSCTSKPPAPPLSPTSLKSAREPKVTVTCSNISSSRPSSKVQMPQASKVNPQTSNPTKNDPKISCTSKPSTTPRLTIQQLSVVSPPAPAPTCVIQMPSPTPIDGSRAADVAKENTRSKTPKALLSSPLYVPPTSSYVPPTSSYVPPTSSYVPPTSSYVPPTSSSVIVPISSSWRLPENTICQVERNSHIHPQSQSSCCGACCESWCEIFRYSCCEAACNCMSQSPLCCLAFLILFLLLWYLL", "UniProt Q61211": "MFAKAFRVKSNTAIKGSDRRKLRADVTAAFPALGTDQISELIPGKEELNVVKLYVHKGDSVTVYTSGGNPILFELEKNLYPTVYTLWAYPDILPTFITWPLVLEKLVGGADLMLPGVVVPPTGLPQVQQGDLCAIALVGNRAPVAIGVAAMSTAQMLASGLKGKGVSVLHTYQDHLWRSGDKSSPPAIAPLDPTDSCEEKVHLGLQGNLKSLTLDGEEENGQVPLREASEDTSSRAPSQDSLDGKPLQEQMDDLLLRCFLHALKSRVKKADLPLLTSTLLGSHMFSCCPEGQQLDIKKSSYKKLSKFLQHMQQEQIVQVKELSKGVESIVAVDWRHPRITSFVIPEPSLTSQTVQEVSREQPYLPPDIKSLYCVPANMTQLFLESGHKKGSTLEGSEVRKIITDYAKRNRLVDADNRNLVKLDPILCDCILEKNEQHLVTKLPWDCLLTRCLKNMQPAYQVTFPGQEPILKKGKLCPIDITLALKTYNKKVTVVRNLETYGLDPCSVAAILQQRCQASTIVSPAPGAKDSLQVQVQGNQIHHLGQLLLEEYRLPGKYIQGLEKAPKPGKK", "UniProt Q60692": "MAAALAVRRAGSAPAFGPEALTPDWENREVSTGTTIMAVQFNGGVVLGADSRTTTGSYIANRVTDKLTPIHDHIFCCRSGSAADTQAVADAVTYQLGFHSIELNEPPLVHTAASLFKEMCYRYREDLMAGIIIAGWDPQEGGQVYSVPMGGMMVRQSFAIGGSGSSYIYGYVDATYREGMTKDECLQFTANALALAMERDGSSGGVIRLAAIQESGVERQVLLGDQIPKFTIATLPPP", "UniProt Q60992": "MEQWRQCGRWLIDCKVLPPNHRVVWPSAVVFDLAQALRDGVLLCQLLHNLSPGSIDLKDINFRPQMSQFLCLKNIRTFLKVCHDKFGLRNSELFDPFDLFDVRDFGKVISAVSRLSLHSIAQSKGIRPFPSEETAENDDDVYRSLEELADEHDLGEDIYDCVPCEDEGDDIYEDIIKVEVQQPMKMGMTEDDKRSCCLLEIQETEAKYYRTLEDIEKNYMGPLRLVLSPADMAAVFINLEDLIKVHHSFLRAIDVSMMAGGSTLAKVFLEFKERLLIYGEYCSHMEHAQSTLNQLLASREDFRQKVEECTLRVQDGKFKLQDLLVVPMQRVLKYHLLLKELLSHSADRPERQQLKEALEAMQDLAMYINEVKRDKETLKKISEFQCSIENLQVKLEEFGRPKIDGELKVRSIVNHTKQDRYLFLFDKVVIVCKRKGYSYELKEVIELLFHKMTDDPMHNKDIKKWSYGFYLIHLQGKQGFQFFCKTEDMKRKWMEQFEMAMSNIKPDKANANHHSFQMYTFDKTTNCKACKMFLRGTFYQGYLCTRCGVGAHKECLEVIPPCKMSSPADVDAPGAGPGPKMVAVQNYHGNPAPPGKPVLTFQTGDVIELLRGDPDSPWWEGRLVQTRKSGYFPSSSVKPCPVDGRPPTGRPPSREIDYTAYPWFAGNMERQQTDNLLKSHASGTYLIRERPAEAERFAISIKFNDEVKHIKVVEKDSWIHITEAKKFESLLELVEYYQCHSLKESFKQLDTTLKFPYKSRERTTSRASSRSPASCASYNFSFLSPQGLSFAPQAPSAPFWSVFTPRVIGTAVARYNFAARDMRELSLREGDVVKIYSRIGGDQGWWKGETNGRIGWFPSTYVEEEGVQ", "UniProt Q60759": "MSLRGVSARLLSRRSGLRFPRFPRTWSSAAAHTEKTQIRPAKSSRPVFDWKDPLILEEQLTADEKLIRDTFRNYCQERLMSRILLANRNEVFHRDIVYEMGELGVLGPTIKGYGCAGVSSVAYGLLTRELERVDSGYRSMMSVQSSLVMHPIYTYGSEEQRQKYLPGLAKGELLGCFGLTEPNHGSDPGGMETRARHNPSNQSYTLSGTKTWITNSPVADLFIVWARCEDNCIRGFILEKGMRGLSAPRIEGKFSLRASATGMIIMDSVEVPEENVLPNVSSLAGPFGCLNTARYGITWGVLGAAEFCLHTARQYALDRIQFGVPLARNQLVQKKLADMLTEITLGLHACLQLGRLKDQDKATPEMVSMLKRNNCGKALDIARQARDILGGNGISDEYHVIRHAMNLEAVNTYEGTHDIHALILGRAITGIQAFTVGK"},
  "source": "the supplement of paper PMC12819154",
  "about": "“High-throughput peptide-centric local stability assay extends protein–ligand identification to membrane proteins, tissues and bacteria” (Nature Structural & Molecular Biology, 2025)",
  "note": "This is one part of the list. Most entries show no effect beyond the scatter of the controls.",
  "data": [
    {"compound": "CN[C@@H]1C[C@H]2O[C@@](C)([C@@H]1OC)n1c3ccccc3c3c4c(c5c6ccccc6n2c5c31)C(=O)NC4 [staurosporine]", "experiment": "log2 fold change of tryptic peptide abundance, ligand vs vehicle (limited proteolysis) (log2 ratio); higher = more trypsin-susceptible (destabilized)", "conditions": "ligand concentration: 20 uM; sample: mouse liver crude lysate; replicate design: treated separately", "values": [
      {"target": "UniProt Q5FW60 (peptide sequence: INGEWYTIMLATDKR, peptide start residue: 34)", "log2 fold change": 0.043},
      {"target": "UniProt Q5NCF2 (peptide sequence: SLPFFSAR, peptide start residue: 136)", "log2 fold change": -0.41},
      {"target": "UniProt Q61191 (peptide sequence: APVTVTSLPASVR, peptide start residue: 512)", "log2 fold change": 0.36},
      {"target": "UniProt Q5SUA5 (peptide sequence: VSDCIPLSQR, peptide start residue: 982)", "log2 fold change": -0.0401},
      {"target": "UniProt Q5QGU6 (peptide sequence: VNPQTSNPTK, peptide start residue: 281)", "log2 fold change": -0.387},
      {"target": "UniProt Q5SWU9 (peptide sequence: TFEDFVR, peptide start residue: 1240)", "log2 fold change": -0.229},
      {"target": "UniProt Q61211 (peptide sequence: GVSVLHTYQDHLWR, peptide start residue: 165)", "log2 fold change": -0.517},
      {"target": "UniProt Q60692 (peptide sequence: VTDKLTPIHDHIFCCR, peptide start residue: 63)", "log2 fold change": 0.162},
      {"target": "UniProt Q60992 (peptide sequence: VVEKDSWIHITEAK, peptide start residue: 712)", "log2 fold change": 0.288},
      {"target": "UniProt Q5SQX6 (peptide sequence: TMLESLIADKSGSKK, peptide start residue: 564)", "log2 fold change": -0.118},
      {"target": "UniProt Q60759 (peptide sequence: CEDNCIR, peptide start residue: 228)", "log2 fold change": -0.244}
    ]}
  ]
}
